In patent US20100298541A1:
Results are given in words; binding and its absence hold for the method and conditions named. Some binding calls cover weakened binding; strength is not graded here. Where a sequence is shown, tags or fusion partners need not be part of it.

Amino acid sequences for entries named in this document (tags omitted). Residues count along the entry.
UniProt O14763, residues 54-182: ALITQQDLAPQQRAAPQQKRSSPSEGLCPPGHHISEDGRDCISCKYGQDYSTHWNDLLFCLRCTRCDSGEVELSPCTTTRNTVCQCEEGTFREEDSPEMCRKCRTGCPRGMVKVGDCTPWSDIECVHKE

What was measured:
[1] = target: TRAIL-R2/Fc fusion protein (R & D Systems) (UniProt O14763); test: Attana biosensor, TRAIL-R2 chip, qualitative comparison
[2] = target: TRAIL-R2/Fc fusion protein (R & D Systems) (UniProt O14763); test: biosensor, TRAIL-R2-Fc fusion protein immobilized on the chip

Row | Binder | binding [1] | binding [2]
1 | 1C12-Fc (Fc fusion, not shown: a dimerising Fc or GST) IEVKDVTDTTALITWAKPEKWDGSIYGCELTYGIKDVPGDRTTIDLNSRHTAYSIGNLKPDTEYEVSLICFTPYGAKSNPAKETFTTGA | binds | binds
2 | 1C12-Cκ/1C12-IGHG1 (protein, not shown: a dimerising Fc or GST) light: IEVKDVTDTTALITWAKPEKWDGSIYGCELTYGIKDVPGDRTTIDLNSRHTAYSIGNLKPDTEYEVSLICFTPYGAKSNPAKETFTTGGGTPT heavy: IEVKDVTDTTALITWAKPEKWDGSIYGCELTYGIKDVPGDRTTIDLNSRHTAYSIGNLKPDTEYEVSLICFTPYGAKSNPAKETFTTGGGTPT | binds | binds
